Some entries share one result that the patent states for a list of compounds. At least one compound was matched to its structure with a doubt left.
Key:
[1] = tested on: fall armyworm (Spodoptera frugiperda); assay: Test B: control of fall armyworm on maize plant, foliar spray; format: in vivo; conditions: 1-day-old larvae on maize plant, 25° C., visually rated
[2] = tested on: diamondback moth (Plutella xylostella); assay: Test A: control of diamondback moth on radish plant, foliar spray; format: in vivo; conditions: neonate larvae on radish plant, 6 days, 25° C., visually assessed

| Structure (SMILES) | control efficacy, very good to excellent: feeding damage (40% or less feeding damage and/or 100% mortality) ([1]; sprayed at 50 ppm) [%] | control efficacy, very good to excellent: feeding damage (40% or less feeding damage and/or 100% mortality) ([2]; sprayed at 50 ppm) [%] | control efficacy, very good to excellent: feeding damage (40% or less feeding damage and/or 100% mortality) ([2]; sprayed at 250 ppm) [%] | control efficacy, very good to excellent: feeding damage (40% or less feeding damage and/or 100% mortality) ([1]; sprayed at 250 ppm) [%] |
| --- | --- | --- | --- | --- |
| Fc1ccc(-c2nn(-c3ccc(Br)cc3)cc2CN2CCC(c3nnco3)CC2)c(F)c1 [Compound 799] | ≤ 40 | ≤ 40 |  |  |
| Fc1ccccc1-c1nn(-c2ccc(Cl)cc2)cc1CN1CCC(c2cnco2)CC1 [Compound 822] | ≤ 40 | ≤ 40 |  |  |
| Fc1ccccc1-c1nn(-c2ccc(Cl)cc2)cc1CN1CCC(c2nccs2)CC1 [Compound 860] | ≤ 40 | ≤ 40 |  |  |
| Cc1ccc(-n2cc(CN3CCC(C#N)CC3)c(-c3ccccc3F)n2)cc1C [Compound 131] | ≤ 40 | ≤ 40 |  |  |
| O=C(N[C@H]1CCN(Cc2cn(-c3ccc(F)c(Cl)c3)nc2-c2ccc(Cl)cc2)C1)C1CC1 [Compound 872] | ≤ 40 | ≤ 40 |  |  |
| Fc1ccccc1-c1nn(-c2ccc(Cl)cc2)cc1CN1CCC(c2ccno2)CC1 [Compound 861] | ≤ 40 | ≤ 40 |  |  |
| N#CC1CCN(Cc2cn(-c3cccc(F)c3)nc2-c2ccccc2F)CC1 [Compound 40] | ≤ 40 | ≤ 40 | ≤ 40 |  |
| N#CC1CCN(Cc2cn(-c3ccc(Br)cc3)nc2-c2ccc(F)cc2F)CC1 [Compound 771] | ≤ 40 | ≤ 40 |  | ≤ 40 |
| Cc1ccccc1-c1nn(-c2ccc(Cl)c(Cl)c2)cc1CN1CC[C@H](NC(=O)C2CC2)C1 [Compound 873] | ≤ 40 | ≤ 40 |  |  |
| Fc1ccccc1-c1nn(-c2ccc(Cl)cc2)cc1CN1CCC(c2cncnc2)CC1 [Compound 885] | ≤ 40 | ≤ 40 |  |  |
| N#CC1CCN(Cc2cn(-c3ccc(Cl)cc3)nc2-c2ccc(F)cc2Br)CC1 [Compound 847] | ≤ 40 | ≤ 40 |  |  |
| Fc1ccccc1-c1nn(-c2cccc(Br)c2)cc1CN1CCOCC1 [Compound 217] | ≤ 40 | ≤ 40 |  |  |
| COC(=O)C1CCN(Cc2cn(-c3ccc(OC(F)(F)F)cc3)nc2-c2ccc(F)cc2)CC1 [Compound 10] | ≤ 40 | ≤ 40 | ≤ 40 |  |
| Fc1ccccc1-c1nn(-c2ccc(OC(F)(F)F)cc2)cc1CN1CCC(n2nnc3ccccc32)CC1 [Compound 82] |  | ≤ 40 | ≤ 40 | ≤ 40 |
| N#CC1CCN(Cc2cn(-c3cccc(Br)c3)nc2-c2ccccc2F)CC1 [Compound 133] | ≤ 40 | ≤ 40 |  |  |
| Cc1nnc(C2CCN(Cc3cn(-c4ccc(Br)cc4)nc3-c3ccccc3F)CC2)o1 [Compound 769] | ≤ 40 | ≤ 40 |  | ≤ 40 |
| COC(=O)C1(C)CCN(Cc2cn(-c3ccc(Cl)cc3)nc2-c2ccc(F)cc2F)CC1 [Compound 825] | ≤ 40 | ≤ 40 |  |  |
| Fc1ccc(-c2nn(-c3ncc(Cl)cn3)cc2CN2CCOCC2)c(F)c1 [Compound 653] | ≤ 40 | ≤ 40 |  |  |
| CC(=O)NC1CCN(Cc2cn(-c3ccc(OC(F)(F)F)cc3)nc2-c2ccccc2F)CC1 [Compound 65] | ≤ 40 | ≤ 40 | ≤ 40 |  |

| Structure (SMILES) | control efficacy, very good to excellent: feeding damage (40% or less feeding damage and/or 100% mortality) ([1]; sprayed at 50 ppm) [%] | control efficacy, very good to excellent: feeding damage (40% or less feeding damage and/or 100% mortality) ([2]; sprayed at 50 ppm) [%] | control efficacy, very good to excellent: feeding damage (40% or less feeding damage and/or 100% mortality) ([2]; sprayed at 250 ppm) [%] | control efficacy, very good to excellent: feeding damage (40% or less feeding damage and/or 100% mortality) ([1]; sprayed at 250 ppm) [%] |
| --- | --- | --- | --- | --- |
| Cc1ccccc1-c1nn(-c2ccc(F)cc2)cc1CN1CCC(C#N)CC1 [Compound 134] | ≤ 40 | ≤ 40 |  |  |
| N#CC1CCN(Cc2cn(-c3ccc(Cl)cc3)nc2-c2c(F)ccc(F)c2F)CC1 [Compound 855] | ≤ 40 | ≤ 40 |  |  |
| N#CC1CCN(Cc2cn(-c3ccc(F)c(F)c3)nc2-c2ccccc2F)CC1 [Compound 94] | ≤ 40 | ≤ 40 |  |  |
| N#CC1CCN(Cc2cn(-c3ccc(OC(F)(F)F)cc3)nc2-c2ccccc2Cl)CC1 [Compound 556] | ≤ 40 | ≤ 40 |  |  |
| N#CC1CCN(Cc2cn(-c3ccc(-c4cccc(F)c4)cc3)nc2-c2ccc(F)cc2F)CC1 [Compound 785] | ≤ 40 | ≤ 40 |  |  |
| N#CC1CCN(Cc2cn(-c3ccc(-c4ccc(F)cc4)cc3)nc2-c2ccc(F)cc2F)CC1 [Compound 786] | ≤ 40 | ≤ 40 |  |  |
| COc1ccccc1-c1nn(-c2ccc(Cl)cc2)cc1CN1CCC(C#N)CC1 [Compound 886] | ≤ 40 | ≤ 40 |  |  |
| N#CC1CCN(Cc2cn(-c3ccc(Cl)c(C(F)(F)F)c3)nc2-c2ccccc2F)CC1 [Compound 632] | ≤ 40 | ≤ 40 |  |  |
| N#CC1CCN(Cc2cn(-c3ccc(Cl)cc3)nc2-c2ccc(F)cc2F)CC1 [Compound 629] | ≤ 40 | ≤ 40 |  |  |
| N#CC1CCN(Cc2cn(-c3ncc(Cl)cn3)nc2-c2ccc(F)cc2F)CC1 [Compound 652] | ≤ 40 | ≤ 40 |  |  |
| N#CC1CCN(Cc2cn(-c3ccc4c(c3)OCO4)nc2-c2ccccc2F)CC1 [Compound 884] | ≤ 40 | ≤ 40 |  |  |
| Cc1ccccc1-c1nn(-c2ccc(Cl)c(Cl)c2)cc1CN1CCCC(C#N)C1 (stereo not shown) [Compound 523] | ≤ 40 | ≤ 40 |  |  |
| CCOC(=O)N1CCN(Cc2cn(-c3ccc(Cl)c(Cl)c3)nc2-c2ccccc2F)CC1 [Compound 203] |  | ≤ 40 | ≤ 40 | ≤ 40 |
| N#CC1CCN(Cc2cn(-c3cccc(Cl)n3)nc2-c2ccccc2F)CC1 [Compound 878] | ≤ 40 | ≤ 40 |  |  |
| N#Cc1ccc(-n2cc(CN3CCC(C#N)CC3)c(-c3ccccc3F)n2)cc1Cl [Compound 85] |  |  | ≤ 40 | ≤ 40 |
| COC(=O)C1CCN(Cc2cn(-c3ccc(Br)cc3)nc2-c2ccc(F)cc2F)CC1 [Compound 773] |  | ≤ 40 |  | ≤ 40 |
| N#CC1CCN(Cc2cn(-c3ccc(Br)cn3)nc2-c2c(F)cc(F)cc2F)CC1 [Compound 899] | ≤ 40 | ≤ 40 |  |  |
| N#CC1CCN(Cc2cn(-c3ccc(Br)cc3)nc2-c2ccccc2F)CC1 [Compound 51] | ≤ 40 | ≤ 40 | ≤ 40 |  |
| N#Cc1ccc(-n2cc(CN3CCC(C#N)CC3)c(-c3ccc(F)cc3)n2)cc1 [Compound 42] | ≤ 40 | ≤ 40 | ≤ 40 |  |

— patent US9113631B2, “1,3-diaryl-substituted heterocyclic pesticides” (E I DU PONT DE NEMOURS AND COMPANY, priority 2011, dated 2015)
